Assay results reported in publication PMC9028839.
These are yes or no findings as the source states them, for the method shown. Binding seen in cells or lysates may run through a third protein. Some entries that bind do so weakly or less than the wild type.

The chains behind the UniProt entries cited, without tags or fusion partners.
UniProt Q52NJ3, whole entry: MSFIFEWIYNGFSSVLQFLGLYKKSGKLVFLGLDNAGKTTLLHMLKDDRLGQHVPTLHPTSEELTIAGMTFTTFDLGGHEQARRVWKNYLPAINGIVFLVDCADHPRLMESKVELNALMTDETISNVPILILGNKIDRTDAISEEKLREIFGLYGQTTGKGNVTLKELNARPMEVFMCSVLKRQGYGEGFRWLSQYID
UniProt Q3T0D7, whole entry: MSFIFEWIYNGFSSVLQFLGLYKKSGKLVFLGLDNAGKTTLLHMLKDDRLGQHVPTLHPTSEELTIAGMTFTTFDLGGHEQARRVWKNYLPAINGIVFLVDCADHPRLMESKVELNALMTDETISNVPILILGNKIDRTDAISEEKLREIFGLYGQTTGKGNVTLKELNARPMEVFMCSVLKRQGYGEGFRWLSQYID

Legend:
[1] = target: Sar1a from swine, FLAG-tagged (swine) (UniProt Q52NJ3); assay: co-IP
[2] = target: Sar1a from cattle, FLAG-tagged (cattle) (UniProt Q3T0D7); assay: co-IP

FMDV 3A protein of strain O/TAW/97 (from UniProt Q6PMV1 1426-1568)
binding [1]: binds
binding [2]: binds
